Results deposited as PubChem BioAssay AID504744 (Drosophila RNAi Screening Center, 2011).

Aim: 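Uncover factors, including feedback loops, that control dAkt activation in fly cells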 (primary screen)
System: Drosophila Kc167 cells
Knock-down reagent: long dsRNA against Drosophila genes, 250 ng dsRNA per well of a 384-well plate
Time to read-out: 3 days of knock-down, then overnight serum-free starvation before stimulation
Challenge: bovine insulin at 387 nM for 10 minutes after 12 h without serum
Read-out: 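In-cell antibody fluorescence for phospho-dAkt in each well over DNA-dye signal, with log2 residuals expressed as z-scores adjusted for cell count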
Call rule: 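Hit in the insulin screen when the two-replicate mean z-score is more extreme than plus or minus 2.5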
The deposit covers about 23,000 reagents; shown is a random part of those with a known target gene and a result. Over the whole deposit, 98 (0.43%) were called active. 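Only hit calls are given; the phospho-dAkt signals, z-scores and hit direction were not deposited.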 A plus sign joins genes that one reagent is predicted to hit.

gene knocked down	DRSC id	Outcome
RabX4 (GeneID 42960)	DRSC22189	inactive
VhaPPA1-2 (GeneID 41806)	DRSC16176	inactive
ver (GeneID 39432)	DRSC10125	inactive
Sulf1 (GeneID 53437)	DRSC16874	inactive
CG31827 + CG18478	DRSC01958	inactive
CG10681 (GeneID 39425)	DRSC09777	inactive
CG10681 (GeneID 39425)	DRSC21484	inactive
Or49a (GeneID 36350)	DRSC07493	inactive
Nuf2 (GeneID 33992)	DRSC03123	inactive
CG13055 (GeneID 39779)	DRSC09936	inactive
Pka-C1 (GeneID 34284)	DRSC03399	inactive
wls (GeneID 39259)	DRSC10605	inactive
Ag5r (GeneID 44631)	DRSC19327	inactive
Tsr1 (GeneID 40360)	DRSC11821	inactive
Ir60b (GeneID 7354400)	DRSC04217	inactive
CG12290 (GeneID 43182)	DRSC14497	inactive
Roc2 (GeneID 36246)	DRSC07313	inactive
DnaJ-H (GeneID 34707)	DRSC03273	inactive
l(3)04053 (GeneID 46158)	DRSC11640	inactive
CG30008 (GeneID 246388)	DRSC21576	inactive
Dph3 (GeneID 41352)	DRSC14923	inactive
AstCC (GeneID 34538)	DRSC02404	inactive
Ge-1 (GeneID 34541)	DRSC02938	inactive
rdhB (GeneID 42614)	DRSC16190	inactive
CG3984 (GeneID 41821)	DRSC15530	inactive
Tengl4 (GeneID 41321)	DRSC15620	inactive
Mulk (GeneID 326168)	DRSC02658	inactive
CycA (GeneID 39340)	DRSC09132	inactive
CycA (GeneID 39340)	DRSC11123	inactive
CG14570 (GeneID 40416)	DRSC11731	inactive
Or43b (GeneID 35743)	DRSC07486	inactive
Pgant4 (GeneID 261610)	DRSC00717	inactive
GatA (GeneID 42283)	DRSC16956	inactive
pim (GeneID 34404)	DRSC03591	inactive
CG4455 (GeneID 34975)	DRSC01983	inactive
CG4455 (GeneID 34975)	DRSC21684	inactive
Edg91 (GeneID 42117)	DRSC16657	inactive
CG16753 (GeneID 38365)	DRSC08489	inactive
flz (GeneID 35902)	DRSC07109	inactive
Grx5 (GeneID 32410)	DRSC19593	inactive
CG41520 (GeneID 5740294)	DRSC21102	inactive
CG41520 (GeneID 5740294)	DRSC21103	inactive
eag (GeneID 32428)	DRSC19067	inactive
eag (GeneID 32428)	DRSC20328	inactive
BI-1 (GeneID 38936)	DRSC10782	inactive
CG31008 (GeneID 318554)	DRSC14028	inactive
Ir94h (GeneID 42769)	DRSC15232	inactive
gish (GeneID 49701)	DRSC16154	inactive
CG30096 (GeneID 246454)	DRSC21744	inactive
CG17192 (GeneID 43248)	DRSC15186	inactive
CG9986 (GeneID 43386)	DRSC16586	inactive
CG5493 + CG5327	DRSC06938	inactive
CG30283 (GeneID 37454)	DRSC04071	inactive
PIG-N (GeneID 36049)	DRSC06837	inactive
CG34289 (GeneID 5740640)	DRSC13625	inactive
Rpt4 (GeneID 31567)	DRSC18713	inactive
Flo2 (GeneID 32425)	DRSC19062	inactive
Flo2 (GeneID 32425)	DRSC20244	inactive
Fen1 (GeneID 36887)	DRSC07415	inactive
nebu (GeneID 39458)	DRSC09807	inactive
nebu (GeneID 39458)	DRSC09808	inactive
CG13297 (GeneID 38711)	DRSC09971	inactive
Alr (GeneID 32991)	DRSC19469	inactive
CG5274 (GeneID 40257)	DRSC11774	inactive
Obp8a (GeneID 31860)	DRSC17868	inactive
CG8560 (GeneID 38830)	DRSC10994	inactive
Or56a (GeneID 37269)	DRSC07495	inactive
CG10005 (GeneID 41451)	DRSC14172	inactive
Bug22 (GeneID 34429)	DRSC02842	inactive
Ntmt (GeneID 36022)	DRSC06624	inactive
Skeletor (retired record) (GeneID 3771796)	DRSC14905	inactive
Skeletor (retired record) (GeneID 3771796)	DRSC14906	inactive
CG6454 (GeneID 42904)	DRSC16044	inactive
CG5897 (GeneID 39346)	DRSC10555	inactive
hd (GeneID 40642)	DRSC12316	inactive
CG7131 (GeneID 42197)	DRSC16203	inactive
Gmer (GeneID 37638)	DRSC04376	inactive
nol (GeneID 64867)	DRSC21425	inactive
CG11155 (GeneID 43822)	DRSC17184	inactive
CG11155 (GeneID 43822)	DRSC17205	inactive
CheB53b (GeneID 3346204)	DRSC05613	inactive
ytr (GeneID 47457)	DRSC04306	inactive
ytr (GeneID 47457)	DRSC22073	inactive
CG13838 (GeneID 42719)	DRSC14688	inactive
CG12912 (GeneID 36075)	DRSC06227	inactive
CG16824 (GeneID 5740834)	DRSC02525	inactive
MFS18 (GeneID 33650)	DRSC00452	inactive
CG2993 (GeneID 40924)	DRSC14284	inactive
CG2993 (GeneID 40924)	DRSC15457	inactive
CG14252 (GeneID 43238)	DRSC14747	inactive
CG11655 (GeneID 32472)	DRSC19413	inactive
Upf1 (GeneID 32153)	DRSC19667	inactive
Rpp30 (GeneID 44392)	DRSC00320	inactive
Rassf (GeneID 42734)	DRSC15612	inactive
upd2 (GeneID 32805)	DRSC19969	inactive
brwl (GeneID 34275)	DRSC01080	inactive
brwl (GeneID 34275)	DRSC02729	inactive
Lime (GeneID 36023)	DRSC06752	inactive
CG4042 (GeneID 40291)	DRSC11751	inactive
ppan (GeneID 42502)	DRSC17030	inactive
CG11226 (GeneID 40501)	DRSC11639	inactive
Or88a (GeneID 41715)	DRSC16770	inactive
CG1344 (GeneID 35500)	DRSC04837	inactive
SkpC (GeneID 32996)	DRSC20375	inactive
Parg (GeneID 31329)	DRSC18696	inactive
Syt7 (GeneID 43783)	DRSC17130	inactive
Syt7 (GeneID 43783)	DRSC17159	inactive
CG12974 (GeneID 40350)	DRSC11684	inactive
CG16734 (GeneID 41100)	DRSC15143	inactive
CG7744 (GeneID 37239)	DRSC07036	inactive
CG13059 (GeneID 39803)	DRSC09942	inactive
CG4882 (GeneID 37787)	DRSC04495	inactive
Cdk12 (GeneID 40385)	DRSC11836	inactive
CG11696 (GeneID 32104)	DRSC19417	inactive
ClC-b (GeneID 36381)	DRSC07220	inactive
Evi5 (GeneID 32088)	DRSC19421	inactive
OS9 + Hf	DRSC03392	inactive
PPP4R2r (GeneID 31979)	DRSC18695	inactive
PPP4R2r (GeneID 31979)	DRSC21503	inactive
CG12645 (GeneID 31947)	DRSC17851	inactive
Dh44 (GeneID 41170)	DRSC12747	inactive
Dh44 (GeneID 41170)	DRSC16409	inactive
CG14805 (GeneID 31146)	DRSC18554	inactive
Est-Q (GeneID 40381)	DRSC11835	inactive
CG11585 (GeneID 32365)	DRSC19410	inactive
Lcp65Ag3 + Lcp65Ag2 + Lcp65Ag1	DRSC11214	inactive
Lcp65Ag3 + Lcp65Ag2 + Lcp65Ag1	DRSC11215	inactive
cona (GeneID 42213)	DRSC16281	inactive
Prim1 (GeneID 38942)	DRSC11137	inactive
CG17698 (GeneID 4379919)	DRSC11907	inactive
CG9498 (GeneID 33885)	DRSC03235	inactive
CG15515 (GeneID 43538)	DRSC15054	inactive
Nna1 (GeneID 32329)	DRSC19404	inactive
CG33169 (GeneID 40504)	DRSC11853	inactive
Kap-alpha1 (GeneID 40160)	DRSC11356	inactive
CG15765 (GeneID 31513)	DRSC18071	inactive
GstE5 (GeneID 37110)	DRSC06675	inactive
NetA (GeneID 32398)	DRSC20261	inactive
eIF2gamma (GeneID 41843)	DRSC13081	inactive
eIF2gamma (GeneID 41843)	DRSC16873	inactive
CG31805 (GeneID 318952)	DRSC01563	inactive
DIP-gamma (GeneID 43417)	DRSC14873	inactive
htl (GeneID 42160)	DRSC16968	inactive
CG31021 (GeneID 43638)	DRSC22319	inactive
mah (GeneID 42988)	DRSC14645	inactive
ppk20 (GeneID 43486)	DRSC16260	inactive
CG15213 (GeneID 50316)	DRSC10213	inactive
ND-51L1 (GeneID 36998)	DRSC06072	inactive
L2HGDH (GeneID 35156)	DRSC02082	inactive
Smg6 (GeneID 42994)	DRSC16029	inactive
CG16985 (GeneID 38323)	DRSC08501	inactive
Tcs4 (GeneID 32982)	DRSC19587	inactive
CG5111 (GeneID 43085)	DRSC15717	inactive
RpS7 (GeneID 43594)	DRSC15394	inactive
croc (GeneID 40374)	DRSC11884	inactive
hep (GeneID 32256)	DRSC19839	inactive
hep (GeneID 32256)	DRSC20337	inactive

Records listed so far whose gene name begins with Y or y (2):
gene knocked down	DRSC id	Outcome
ytr (GeneID 47457)	DRSC04306	inactive
ytr (GeneID 47457)	DRSC22073	inactive
